According to the supplement of paper PMC8256030:
Some of the results follow. This data set is noisy: repeats of one test often differ as much as different tests do.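 HEK293T cells were given each compound shortly before transfection with a reporter in which red mCherry is followed by the SARS-CoV-2 frameshift element and then GFP in the −1 frame, so GFP appears only after frameshifting.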

The molecules below were run on HEK293T (assay: percent viability (nuclei count) relative to control; higher = more viable cells). Conditions: 10 µM; 24 h.

Structure (SMILES)	percent viability
Cn1cnc([N+](=O)[O-])c1Sc1ncnc2[nH]cnc12 [azathioprine]	124%
Cc1ccc(S(=O)(=O)NC(=O)NC2CCCCC2)cc1 [glycyclamide]	275%
N[C@@H]1CCCC[C@H]1N.O=C([O-])C(=O)[O-].[Pt+2]	172%
O=C1c2ccccc2CN2C(=O)c3ccccc3CN12 [diftalone]	94.4%
Cc1nnc(C(C)C)n1C1C[C@H]2CC[C@@H](C1)N2CC[C@H](NC(=O)C1CCC(F)(F)CC1)c1ccccc1 (stereo in doubt) [maraviroc]	122%
N=C(N)NCCN1CCCCCCC1	139%
CCN(CC)CCOC(=O)C(c1ccccc1)c1ccccc1 [adiphenine]	113%
NCCNCCNCCN	360%
N.N.O=C([O-])C[O-].[Pt+2] [Nedaplatin]	196%
CN[C@H]1CC[C@@H](c2ccc(Cl)c(Cl)c2)c2ccccc21 [sertraline]	307%
N[C@@H]1CCCCN(c2c(F)cc3c(=O)c(C(=O)O)cn(C4CC4)c3c2Cl)C1 [Besifloxacin]	146%
C=CCNc1nc(NCC=C)nc(N2CCN(C(c3ccc(F)cc3)c3ccc(F)cc3)CC2)n1 [almitrine]	176%
CCN(CC)C(=O)c1ccc(O)c(OC)c1 [etamivan]	234%
CC1=C(C(=O)O)N2C(=O)[C@@H](NC(=O)[C@H](N)C3=CCC=CC3)[C@H]2SC1 [cefradine]	127%
CCC1(CC)O[C@@H]2C[C@H]3[C@@H]4CCC5=CC(=O)C=C[C@]5(C)[C@@]4(F)[C@@H](O)C[C@]3(C)[C@]2(C(=O)CO)O1 [amcinafal]	152%

Rewritten as labelled records: entries from further up.
N=C(N)NCCN1CCCCCCC1
  percent viability: 139%
CCN(CC)CCOC(=O)C(c1ccccc1)c1ccccc1 [adiphenine]
  percent viability: 113%
